According to PubChem BioAssay (NCATS):
The inconclusive results got no clear call from the source; some entries with a clear call stand among them for comparison. For some of these results: Potencies of inconclusive entries are doubtful fits and often do not repeat. Active and inactive are the calls of the source. Calls come from the whole dose curve; as a rule, active = well fitted curve in the direction sought with a large enough effect; inconclusive = small, poorly fitted or top-dose-only effect, or another doubt; inactive = no such curve, though single readings can be large; an effect the other way counts as inactive or inconclusive.

Tests used:
[1] = Quantitative High-Throughput drug screen in 47 multiple myeloma cell lines against the NCATS MIPE library collection: JIM1_ECACC cell viability assay (AID 1918964); details: JIM1 myeloma viability, CellTiter-Glo ATP luminescence, 48 h; viability (% of DMSO): at 45.8 µM (top of the series)
How it was run: (§1)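 We plated 500 myeloma cells per well, pinned in MIPE 4.0 compounds, and incubated for 48 hours at 37C. ATP was then quantified with CellTiter-Glo, with DMSO and media-only wells defining 100% and 0%.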

[2] = Quantitative High-Throughput drug screen in 47 multiple myeloma cell lines against the NCATS MIPE library collection: INA6_PLB cell viability assay (AID 1918965; note: nearly all actives have a fitted effect of over 55% in size); details: INA6 myeloma viability, CellTiter-Glo ATP luminescence, 48 h; viability (% of control): at 45.8 µM (top of the series) unless noted
How it was run: (§2)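 Steps: seed 500 cells per well; pin-transfer MIPE 4.0 library; incubate 48 h at 37C, 5% CO2, humidified; add CellTiter-Glo, 5 min room temperature; read luminescence.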

[3] = Quantitative High-Throughput drug screen in 47 multiple myeloma cell lines against the NCATS MIPE library collection: JJN3_DSMZ cell viability assay (AID 1918966; note: nearly all actives have a fitted effect of over 50% in size)
How it was run: as §1

[4] = Quantitative High-Throughput drug screen in 47 multiple myeloma cell lines against the NCATS MIPE library collection: KMS27_JCRB cell viability assay (AID 1918970); details: KMS27 myeloma cells, CellTiter-Glo ATP viability, 48 h; viability (% of DMSO): at 45.8 µM (top of the series); note: nearly all actives have a fitted effect of over 30% in size
How it was run: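 Myeloma cells (500 per well) were exposed to MIPE 4.0 compounds for 48 h at 37 °C, 5% CO2; viability was read as ATP luminescence with CellTiter-Glo, normalized to DMSO-only (100%) and media-only (0%) wells.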

[5] = Quantitative High-Throughput drug screen in 47 multiple myeloma cell lines against the NCATS MIPE library collection: KMS12BM_JCRB cell viability assay (AID 1918971); details: KMS12BM myeloma viability, CellTiter-Glo ATP, 48 h; viability, % of DMSO: at 45.8 µM (top of the series); note: nearly all actives have a fitted effect of over 35% in size
How it was run: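 Relative luminescence from CellTiter-Glo served as the viability signal, referenced to DMSO-treated (100%) and cell-free medium (0%) controls. Treatment lasted 48 hours at 37C with 500 cells per well.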

[6] = Quantitative High-Throughput drug screen in 47 multiple myeloma cell lines against the NCATS MIPE library collection: KMS12PE_JCRB cell viability assay (AID 1918972); details: KMS12PE myeloma viability, CellTiter-Glo ATP, 48 h; viability: at 45.8 µM (top of the series); note: nearly all actives have a fitted effect of over 30% in size
How it was run: as §2

[7] = Quantitative High-Throughput drug screen in 47 multiple myeloma cell lines against the NCATS MIPE library collection: H1112_PLB cell viability assay (AID 1918967; note: nearly all actives have a fitted effect of over 30% in size)
How it was run: as §1

[8] = Quantitative High-Throughput drug screen in 47 multiple myeloma cell lines against the NCATS MIPE library collection: Karpas25_ECACC cell viability assay (AID 1918968; note: nearly all actives have a fitted effect of over 35% in size)
How it was run: as §1

[9] = Quantitative High-Throughput drug screen in 47 multiple myeloma cell lines against the NCATS MIPE library collection: JIM3_ECACC cell viability assay (AID 1918963; note: nearly all actives have a fitted effect of over 35% in size)
How it was run: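 Luminescent ATP measurement with CellTiter-Glo gives viability, scaled between DMSO-only wells (100%) and media-only wells (0%). Cells, 500 per well, faced library compounds for 48 hours at 37C.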
Potency is the fitted concentration of half-maximal effect.

For `CCn1c(-c2nonc2N)nc2c(C#CC(C)(C)O)ncc(OC[C@H]3CCCNC3)c21`, the Potency [1] was inconclusive: 4.69 µM [cytotoxic, partial curve], the Potency [2] was active: 4.18 µM and the Potency [3] was inconclusive: 5.9 µM [cytotoxic, partial curve, poor fit]. The Potency [4] was active: 0.418 µM, the Potency [5] was active: 14.8 µM and the Potency [6] was inconclusive: 6.62 µM [cytotoxic, partial curve].
With `COC1=C2C[C@@H](C)C[C@H](OC)[C@@H](O)[C@@H](C)C=C(C)[C@H](OC(N)=O)[C@@H](OC)C=CC=C(C)C(=O)NC(=CC1=O)C2=O` the Potency [1] was active: 7.43 µM, the Potency [3] was active: 0.0662 µM and the Potency [4] was inconclusive: 9.35 µM [cytotoxic, single point]. For the same compound, the Potency [5] was active: 0.118 µM and the Potency [6] was inconclusive: 10.5 µM [cytotoxic, single point].
In the case of `CCOC(=O)c1ccc(C#Cc2ccc3c(c2)C(C)(C)CCS3)nc1`, the Potency [1] was inconclusive: 0.0105 µM [cytotoxic, full curve, poor fit], the Potency [3] was inconclusive: 33.2 µM [cytotoxic, single point] and the Potency [4] was “inactive”. For the same compound, the Potency [5] was inconclusive: 20.9 µM [cytotoxic, single point].
For `CC1(C)CC(=O)c2c(C(F)(F)F)nn(-c3ccc(C(N)=O)c(NC4CCC(O)CC4)c3)c2C1` (stereo not given), the Potency [1] was inconclusive: 1.66 µM [cytotoxic, partial curve, poor fit], the Potency [2] was inconclusive: 0.148 µM [cytotoxic, full curve, poor fit] and the Potency [7] was inconclusive: 0.0418 µM [cytotoxic, full curve]. For the same compound, the Potency [8] was inconclusive: 0.132 µM [cytotoxic, full curve], the Potency [4] was “inactive” and the Potency [5] was inconclusive: 0.132 µM [cytotoxic, full curve].
With `Cn1c(=O)c2c(ncn2C)n(C)c1=O` the Potency [1] was inconclusive: 3.32 µM [cytotoxic, full curve, poor fit], the Potency [3] was “inactive” and the Potency [8] was inconclusive: 37.2 µM [cytotoxic, partial curve, poor fit]. For the same compound, the Potency [4] was inconclusive: 2.96 µM [cytotoxic, partial curve, poor fit], the Potency [5] was “inactive” and the Potency [6] was “inactive”.
With `CNC(=O)c1ccc(N2C(=S)N(c3ccc(C#N)c(C(F)(F)F)c3)C(=O)C2(C)C)cc1F` the Potency [1] was inconclusive: 37.2 µM [cytotoxic, single point], the Potency [2] was inconclusive: 37.2 µM [cytotoxic, single point] and the Potency [3] was inconclusive: 0.0023 µM [rising, full curve, poor fit]. The Potency [4] was inconclusive: 3.32 µM [cytotoxic, full curve, poor fit], the Potency [5] was inconclusive: 0.0093 µM [rising, full curve, poor fit] and the Potency [6] was inconclusive: 18.7 µM [cytotoxic, partial curve, poor fit].
In the case of `O=C(O)[C@H](Cc1c[nH]c2ccccc12)N1C(=O)c2ccccc2C1=O`, the Potency [1] was “inactive”, the viability (% of control) [2] was inconclusive: 139% [cytotoxic] [at 92.2 µM] and the Potency [3] was inconclusive: 42.9 µM [rising, partial curve, poor fit]. For the same compound, the Potency [4] was inconclusive: 0.0959 µM [cytotoxic, full curve, poor fit] and the Potency [5] was inconclusive: 0.003 µM [rising, full curve, poor fit].
With `COc1ccc(C(C)=O)c(O)c1` the Potency [1] was “inactive”, the Potency [2] was “inactive” and the Potency [3] was “inactive”. For the same compound, the Potency [7] was “inactive”, the Potency [8] was inconclusive: 14.8 µM [cytotoxic, partial curve] and the Potency [4] was inconclusive: 0.0187 µM [cytotoxic, full curve, poor fit]. The Potency [5] was inconclusive: 0.0743 µM [rising, full curve, poor fit] and the Potency [6] was “inactive”.
For `CC=C1NC(=O)[C@H]2CSSCCC=C[C@H](CC(=O)N[C@H](C(C)C)C(=O)N2)OC(=O)[C@H](C(C)C)NC1=O`, the Potency [9] was active: 0.0469 µM and the viability [6] was inconclusive: 3.43% [cytotoxic].
For `CCCS(=O)(=O)Nc1ccc(F)c(C(=O)c2c[nH]c3ncc(-c4ccc(Cl)cc4)cc23)c1F`, the Potency [1] was inconclusive: 14.8 µM [cytotoxic, partial curve, poor fit], the Potency [2] was active: 8.33 µM and the Potency [3] was inconclusive: 20.9 µM [cytotoxic, partial curve, poor fit]. For the same compound, the Potency [7] was active: 9.35 µM, the Potency [8] was active: 9.35 µM and the Potency [6] was inconclusive: 0.0332 µM [cytotoxic, full curve, poor fit].
For `COc1cccc2c1C(=O)c1c(O)c3c(c(O)c1C2=O)C[C@@](O)(C(=O)CO)C[C@@H]3O[C@H]1C[C@H](N)[C@@H](O)[C@H](C)O1`, the Potency [1] was inconclusive: 0.743 µM [cytotoxic, full curve, poor fit], the Potency [3] was active: 0.662 µM and the Potency [4] was active: 0.935 µM. For the same compound, the Potency [5] was active: 0.469 µM.
For `COc1cc2ncnc(Nc3ccc(F)c(Cl)c3)c2cc1NC(=O)C=CCN1CCCCC1`, the Potency [1] was active: 10.5 µM, the Potency [3] was active: 20.9 µM and the Potency [7] was active: 8.33 µM. The Potency [4] was active: 4.18 µM and the Potency [5] was active: 18.7 µM.
With `Cc1cc(C(C)(C)C)cc(C)c1CC1=NCCN1` the Potency [1] was inconclusive: 26.4 µM [cytotoxic, partial curve, poor fit], the Potency [2] was inconclusive: 3.72 µM [cytotoxic, partial curve, poor fit] and the Potency [3] was inconclusive: 3.32 µM [cytotoxic, full curve, poor fit]. The Potency [7] was “inactive”, the Potency [8] was “inactive” and the Potency [4] was inconclusive: 0.526 µM [cytotoxic, full curve, poor fit]. The Potency [5] was inconclusive: 3.32 µM [cytotoxic, partial curve, poor fit].
In the case of `Cc1c(C(=O)Nc2ccc(N3C[C@@H](C)O[C@@H](C)C3)nc2)cccc1-c1ccc(OC(F)(F)F)cc1`, the Potency [1] was inconclusive: 0.418 µM [cytotoxic, full curve, poor fit], the Potency [2] was inconclusive: 5.9 µM [cytotoxic, partial curve, poor fit] and the Potency [3] was active: 14.8 µM. For the same compound, the Potency [4] was inconclusive: 1.87 µM [cytotoxic, full curve, poor fit] and the Potency [6] was inconclusive: 0.743 µM [cytotoxic, partial curve, poor fit].
In the case of `Cc1ccc(NC(=O)c2cccc(C(C)(C)C#N)c2)cc1Nc1ccc2ncn(C)c(=O)c2c1`, the Potency [1] was inconclusive: 4.69 µM [cytotoxic, partial curve], the Potency [3] was active: 18.7 µM and the Potency [7] was inconclusive: 13.2 µM [cytotoxic, partial curve]. The Potency [4] was active: 1.05 µM and the Potency [6] was active: 5.9 µM.
In the case of `O=C(c1ccc(F)cc1)C1CCN(CCn2c(=O)[nH]c3ccccc3c2=O)CC1`, the Potency [1] was “inactive”, the Potency [3] was inconclusive: 0.526 µM [cytotoxic, full curve, poor fit] and the Potency [4] was “inactive”. The Potency [5] was “inactive”.
In the case of `O=C(Nc1cccc(Cl)c1)Nc1ncc(CCNc2ncnc3ccsc23)s1`, the Potency [1] was inconclusive: 11.8 µM [cytotoxic, single point], the Potency [3] was active: 5.26 µM and the Potency [4] was inconclusive: 0.0469 µM [cytotoxic, full curve, poor fit].
In the case of `C[C@H]1O[C@@H](n2cc(F)c(=O)[nH]c2=O)[C@H](O)[C@H]1O`, the Potency [1] was inconclusive: 5.9 µM [cytotoxic, partial curve, poor fit], the Potency [3] was “inactive” and the Potency [7] was inconclusive: 14.8 µM [cytotoxic, partial curve, poor fit]. The Potency [4] was inconclusive: 10.5 µM [cytotoxic, single point].
With `Clc1ccc(C2(c3ccc(-c4cn[nH]c4)cc3)CCNCC2)cc1` the Potency [1] was inconclusive: 23.5 µM [cytotoxic, partial curve, poor fit], the Potency [2] was active: 5.9 µM and the Potency [4] was inconclusive: 18.7 µM [cytotoxic, partial curve].
In the case of `CCC(c1ccc(O)cc1)C(CC)c1ccc(O)cc1` (stereo not given), the Potency [1] was inconclusive: 0.0148 µM [rising, full curve, poor fit], the Potency [2] was “inactive” and the Potency [3] was inconclusive: 18.7 µM [cytotoxic, partial curve, poor fit]. For the same compound, the Potency [8] was inconclusive: 6.62 µM [cytotoxic, partial curve, poor fit], the Potency [5] was inconclusive: 18.7 µM [cytotoxic, partial curve, poor fit] and the Potency [6] was “inactive”.
With `Cc1cnc(Nc2cccc(CN3CCOCC3)c2)nc1Nc1cccc(S(=O)(=O)NC(C)(C)C)c1` the Potency [1] was inconclusive: 5.26 µM [cytotoxic, partial curve, poor fit], the Potency [2] was active: 0.469 µM and the Potency [3] was active: 5.9 µM. The Potency [4] was inconclusive: 0.935 µM [cytotoxic, full curve, poor fit] and the Potency [6] was inconclusive: 0.743 µM [cytotoxic, full curve, poor fit].
In the case of `CC(=O)Nc1cccc(-n2c(=O)n(C3CC3)c(=O)c3c(Nc4ccc(I)cc4F)n(C)c(=O)c(C)c32)c1`, the Potency [1] was inconclusive: 7.43 µM [cytotoxic, partial curve, poor fit], the Potency [2] was active: 0.0418 µM and the Potency [3] was inconclusive: 6.62 µM [cytotoxic, partial curve, poor fit]. The Potency [5] was inconclusive: 9.35 µM [cytotoxic, full curve, poor fit] and the Potency [6] was inconclusive: 33.2 µM [cytotoxic, single point].
In the case of `CC(C)c1ccccc1Cc1cc(C(=O)Nc2ccc(S(=O)(=O)c3ccccc3C(C)(C)C)cc2)c(O)c(O)c1O`, the Potency [1] was “inactive”, the Potency [3] was active: 14.8 µM and the Potency [4] was “inactive”. The Potency [5] was active: 3.72 µM and the Potency [6] was “inactive”.
